Converted amounts (≈) assume the structure as drawn.
Tests used:
Experiment in all cases: broth microdilution MIC (CLSI)
Type in all cases: cell-based
[1] = tested on: E. faecalis ATCC51599 vancomycin resistant; settings: Enterococcus faecalis, ATCC51599, read-out: Antibacterial activity (MIC)
Description: (§1) Using a broth microdilution assay according to Clinical Laboratory Standards Institute (CSLI) guidelines, we tested 5-(2,5-bis(4-chloro-2-isopropylphenyl)thiophen-3-yl)-1H-tetrazole (“Test Article” in below table) to establish MICs against a broad range of MDR bacteria and noted substantive activity versus methicillin-resistant Staphylococcus aureus (MRSA), vancomycin-resistant Enterococcus (VRE) and Streptococcus spp. Antimicrobial susceptibility testing was performed by a microdilution broth assay according to CLSI guidelines. The inoculum was prepared from stationary-phase cultures diluted in water. Microtiter plate wells received aliquots of 100 μL of the compound diluted in Mueller-Hinton II cation adjusted media. The final concentration of compound typically ranged from 250 to 0.125 μg/ml in serial two-fold dilutions. In addition to the test compound, growth and sterility controls were included, along with DMSO vehicle control rows. The microtiter plates were inoculated with 5×10^5 bacteria and incubated overnight at 35° C. in a humidified atmosphere.

[2] = tested on: S. epidermidis NRS7 vancomycin intermediate; settings: Staphylococcus epidermidis, NRS7, read-out: Antibacterial activity (MIC)
Description: as §1

[3] = tested on: E. faecium ATCC51299 vancomycin resistant; settings: Enterococcus faecium, ATCC51299, read-out: Antibacterial activity (MIC)
Description: as §1

CN[C@H](CC(C)C)C(=O)N[C@H]1C(=O)N[C@@H](CC(N)=O)C(=O)N[C@H]2C(=O)N[C@H]3C(=O)N[C@H](C(=O)N[C@H](C(=O)O)c4cc(O)cc(O)c4-c4cc3ccc4O)[C@H](O)c3ccc(c(Cl)c3)Oc3cc2cc(c3O[C@@H]2O[C@H](CO)[C@@H](O)[C@H](O)[C@H]2O[C@H]2C[C@](C)(N)[C@H](O)[C@H](C)O2)Oc2ccc(cc2Cl)[C@H]1O [vancomycin, reference compound]
MIC [1]: > 16 µg/mL | MIC [2]: 4 µg/mL (≈ 2.76 µM) | MIC [3]: > 16 µg/mL

— US12358902B2, “5-(2,5-bis(4-chloro-2-isopropylphenyl)thiophen-3-yl)-1H-tetrazole for the topical treatment of bacterial infections” (DENOVAMED INC., priority 2017, dated 2025)
